# Reference: PubChem BioAssay AID623995 (National Center for Advancing Translational Sciences (NCATS), 2012)
# Amino acid sequences for entries named in this document (tags omitted).
# UniProt O75874, whole entry, looked up: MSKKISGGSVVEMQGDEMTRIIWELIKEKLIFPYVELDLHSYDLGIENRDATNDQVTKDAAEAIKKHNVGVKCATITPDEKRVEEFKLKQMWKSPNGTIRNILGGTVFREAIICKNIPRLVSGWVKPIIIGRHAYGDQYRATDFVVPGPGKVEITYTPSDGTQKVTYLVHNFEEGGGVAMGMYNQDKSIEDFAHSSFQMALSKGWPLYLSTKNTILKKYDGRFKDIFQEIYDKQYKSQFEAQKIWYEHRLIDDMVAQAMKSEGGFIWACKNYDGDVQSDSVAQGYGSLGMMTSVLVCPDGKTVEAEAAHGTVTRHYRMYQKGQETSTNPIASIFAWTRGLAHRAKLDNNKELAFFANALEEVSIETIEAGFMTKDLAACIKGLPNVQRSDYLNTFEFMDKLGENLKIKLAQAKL
# The shares of active, inactive and inconclusive entries below differ from those in the screen. Potencies of inconclusive entries are doubtful fits and often do not repeat. Active and inactive are the calls of the source. Calls follow the shape of the dose curve; as a rule, active = well fitted inhibition curve with a large enough effect; inconclusive = small, poorly fitted or top-dose-only effect; inactive = no such curve, though single readings can be large or run the other way.
# Target: Isocitrate dehydrogenase [NADP] cytoplasmic (Homo sapiens) (UniProt O75874)
# Test: qHTS for Inhibitors of mutant isocitrate dehydrogenase 1 (IDH1): Cherrypicks in WT IDH1; also: nearly all actives have a fitted effect of over 55% in size
# Details: WT IDH1 enzyme, NADPH diaphorase/resazurin fluorescence; series mostly up to 115 µM; activity change, negative = inhibition: at the top concentration
# Description: Unbiased genomic sequencing for 22 glioma genomes found recurrent mutation of isocitrate dehydrogenase 1 (IDH1) on chromosome 2q33-a gene encoding the cytosolic isoform of IIDH1associated with the tricarboxylic acid cycle (TCA) that catalyzes the oxidative decarboxylation of isocitrate, yielding alpha-ketoglutarate and CO2 via NADP+ to NADPH conversion. Subsequent studies confirmed the recurrent IDH mutations in up to 70% of secondary gliomas and in 10% of AML cases. […] This in effect defines IDH1 as an oncogene, and provides an extraordinary opportunity to discover chemical probes against mutant IDH1 that may translate into much needed new therapies for glioma and AML patients. QHTS-compatible fluorescent, enzymatic assay was developed to identify inhibitors of the IDH1 mutant (AID 602179). To identify selectivity of the identified inhibitors, a secondary enzymatic assay against the WT IDH1 was also developed. Inhibition of the WT IDH1 leads to a decrease in the amount of NADPH relative to a DMSO control and a concomitant decrease in the fluorescence of the diaphorase/resazurin enzyme product resorufin at 590 nm. Compounds were screened as a concentration-titration series that ranged from 115 uM to 0.20 uM. NIH Molecular Libraries Probe Production Network [MLPCN] NIH Chemical Genomics Center [NCGC] MLSCN Grant: R03 DA032129 PI Name: Dr. Lenny Dang
# Enzyme buffer was dispensed into black, solid 1536-well plates at 3 microL/well in 20 mM Tris buffer, pH 7.5, containing final concentrations of 10 mM MgCl2, 20 mM NaCl, 0.05% BSA, 2 mM b-ME and 0.65 nM WT IDH1. Then, 23 nL of compounds or DMSO were delivered to each well using a pin tool. The substrate and detection buffer (1 uL; 20 mM Tris buffer, pH 7.5, containing final concentrations of 10 mM MgCl2, 20 mM NaCl, 0.05% BSA, 0.06 mM NADP+, 0.53 uM diaphorase, 0.012 mM resazurin and 0.08 mM isocitrate) was added to start the enzymatic reaction. The fluorescence intensity was monitored in kinetic mode on a ViewLux plate reader at 598 nm for 10 minutes (Ex 525, EM 598, bodipy mirror, 0.5 sec exposure). The % Activity was determined from the corrected fluorescence values. As no specific WT IDH1 inhibitors have been identified in the literature, 1x (0.65 nM) and 0x WT IDH1 enzyme controls (untreated) were included to normalize % Activity of identified inhibitors; 0x enzyme values corresponded to 100% Activity (full inhibition), while 1x WT IDH1 enzyme values were used to normalize 0% Activity (no inhibition). Concentration-response curves were fitted to the signals arising from the resulting fluorescence. The concentration-response curves were then classified based on curve quality (r2), response magnitude and degree of measured activity, and compounds were subsequently categorized based on their curve class. […] Keywords: Isocitrate dehydrogenase, IDH1, IDH1 R132H, 2-HG, 2-hydroxyglutarate, AML, glioma, MLSMR, MLPCN, NIH Roadmap, qHTS, NCGC
# Potency is read from the fitted curve at half-maximal effect.
SMILES,Potency,"activity change, negative = inhibition"
CCOC(=O)c1c(-n2c(C)cc(C=C3C(=O)NC(=S)NC3=O)c2C)sc2c1CCCC2,active: 39.8 µM,–
Cc1cc(C=C2C(=O)NC(=S)NC2=O)c(C)n1-c1ccc2c(c1)OCO2,"inconclusive: 89.1 µM [inhibitor, single point]",–
O=c1[nH]c(O)c(/C=C2/C=CC(c3cc(Cl)ccc3Cl)=N2)c(=O)[nH]1,active: 44.7 µM,–
C=C1C(=O)O[C@@H]2C[C@@H](C)[C@@H]3C=CC(=O)[C@@]3(C)[C@@H](OC(=O)CC(=O)O[C@H]3[C@@H]4C(=C)C(=O)O[C@@H]4C[C@@H](C)[C@@H]4C=CC(=O)[C@]43C)[C@H]12,–,inactive: -10.1%
Cc1ccc(C[n+]2c(-c3ccc(C)cc3)cc(-c3ccc(C)cc3)cc2-c2ccc(C)cc2)cc1,–,inactive: 11.9%
N#CC(C#N)=NNc1ccc(-n2ccc(C(F)(F)F)n2)cc1,active: 79.4 µM,–
Clc1ccc(C(c2ccc(Cl)cc2)n2cc[n+](CC(OCc3ccc(Cl)cc3Cl)c3ccc(Cl)cc3Cl)c2)cc1 (configuration not stated),"inconclusive: 44.7 µM [inhibitor, partial curve, poor fit]",–

# 2 of these compounds, set out differently:
SMILES | Potency | activity change, negative = inhibition
CCOC(=O)c1c(-n2c(C)cc(C=C3C(=O)NC(=S)NC3=O)c2C)sc2c1CCCC2 | active: 39.8 µM | –
Cc1cc(C=C2C(=O)NC(=S)NC2=O)c(C)n1-c1ccc2c(c1)OCO2 | inconclusive: 89.1 µM [inhibitor, single point] | –
